Assay results taken from patent US20240208988A1, “Alstonine Derivatives and Salts Thereof” (priority 2021, published 2024).
At least one structure is not confirmed: it was looked up by name or label, or the drawing left a doubt.

Tests used:
Zebrafish (Danio rerio) [1] = assay: Social interaction test in zebrafish exposed to MK-801; type: in vivo
Method: (§1) Here, the ability of alstonine salts to reverse schizophrenia-like symptoms produced by MK-801 in zebrafish was evaluated. The atypical antipsychotic olanzapine was used as a comparison.
(§2) Experiments were performed using male and female (50:50 ratio) short-fin wild-type zebrafish (4-month-old, 300-500 mg). Adult animals were obtained from a local commercial supplier (Delphis, RS, Brazil). The animals were maintained at Instituto de Ciências Básicas de Saúde in a light/dark cycle of 14/10 h with lights on at 7:00 a.m. for at least two weeks before tests. Fish were kept in 40-L (30×46×33 cm) unenriched glass tanks with non-chlorinated water at a maximum density of five animals per liter. Tank water satisfied the controlled conditions required for zebrafish (26±2° C.; pH 7.0±0.3; dissolved oxygen at 7.0±0.4 mg/L; total ammonia at <0.01 mg/L; total hardness at 5.8 mg/L; alkalinity at 22 mg/L CaCO3; conductivity of 1,500-1,600 μS/cm) and was constantly filtered by mechanical, biological, and chemical filtration systems. Food was provided twice a day as commercial flake food (Poytara®, SP, Brazil) plus brine shrimp (Artemia salina). The sex of the animals was confirmed after euthanasia by dissecting and analyzing the gonads. For all experiments, no sex effects were observed, so data was pooled together. Animals were euthanized by hypothermic shock according to the AVMA Guidelines for the Euthanasia of Animals (Leary and Johnson, 2020).
(§3) Olanzapine and MK-801 (dizocilpine) were purchased from Sigma-Aldrich (St. Louis, MO, USA). Alstonine hydrochloride and alstonine hydrobromide were prepared as described herein. MK-801 and either olanzapine or alstonine salt were dissolved in distilled water; alstonine salt stock solutions were sonicated in an ultrasonic bath. MK-801 solutions were freshly prepared, while alstonine salt stock solutions were kept refrigerated for up to five days. Exposure solutions were renovated halfway through the experiment, with a maximum of four fish exposed to the same solution.
Different sets of animals were used for each experiment, totaling 240 zebrafish in the study (plus 80 zebrafish serving as stimulus animals). […]
The protocol for the social interaction test in zebrafish followed the method described by Benvenutti et al. (2021) Journal of Neuroscience Research 00: 1-16. […] Animals were habituated to the apparatus for 2 min and then analyzed for the last 5 min. Videos were recorded from the front view and time spent in the interaction zone was quantified as a proxy for social interaction. Additionally, total distance traveled, number of crossings between the vertical zones of the tank and immobility time were quantified as secondary locomotor parameters. All outcomes were automatically scored using ANY-Maze software (Stoelting Co., Wood Dale, IL, USA). […]

Zebrafish (Danio rerio) [2] = assay: Open tank test in zebrafish exposed to MK-801; type: in vivo
Method: as §1, §2, §3
Different sets of animals were used for each experiment, totaling 240 zebrafish in the study (plus 80 zebrafish serving as stimulus animals). Animals were individually exposed to water, olanzapine, or alstonine salt solutions at 2.5, 5, or 10 mg/L in 500-mL beakers containing 200-mL solution for 20 min. These concentrations were extrapolated from mice studies. Fish were then transferred to another beaker containing either water or MK-801 at 5 μM and remained there for another 20 minutes.
The protocol for the open tank test followed the method described by Benvenutti et al. (2021) Journal of Neuroscience Research 00: 1-16. Immediately after the social interaction test, animals were placed in the center of the open tank arena and recorded for 10 min. The apparatus consisted of a white circular arena (24 cm in diameter and 8 cm in height, 2 cm water level). The apparatus format and the acquisition of videos from the top view allows the evaluation of locomotor parameters related to stereotypic behavior (circular movements and absolute turn angle). The water was changed between every animal. The following outcomes were automatically scored using ANY-Maze software (Stoelting Co., Wood Dale, IL, USA): total distance traveled, absolute turn angle, number of clockwise rotations, and immobility time.
GraphPad Prism 8 (version 8.4.3) for macOS was used to run the statistical analyses and plot the results. No animals were excluded, except for two data points in the open tank test due to a failure in video acquisition. Data were analyzed by two-way ANOVA, with alstonine salt or olanzapine pretreatment (Drug_1) and MK-801 treatment (Drug_2) as the main factors. Bonferroni post hoc test was applied as appropriate. The significant level was set at p<0.05. Data were expressed as mean standard deviation.

Zebrafish (Danio rerio) [3] = assay: Zebrafish behavioral assays overall: reversal of schizophrenia-like symptoms produced by MK-801; type: in vivo; details: social interaction and open tank tests together
rodents = details: acute administration; literature data; cited from earlier work
[4] = immediately after social interaction test, 10 min, bracket = kind of effect and concentration (mg/L)

With `Cc1cc2c(s1)Nc1ccccc1N=C2N1CCN(C)CC1` [olanzapine] the “total distance traveled in the social interaction test” value (Zebrafish (Danio rerio) [1]; main effect, FIG. 3) was “increased total distance traveled in the smallest dose”, the “time spent in the interaction zone (social interaction), effect of the substance itself” value (Zebrafish (Danio rerio) [1]; main effect, two-way ANOVA, Bonferroni post hoc, FIG. 2) was “main effect of decreasing social interaction time at higher concentrations” and the “number of crossings in the social interaction test” value (Zebrafish (Danio rerio) [1]; main or interaction effect with MK-801, FIG. 4) was “significant interaction”. For the same compound, the “prevention of the MK-801-induced decrease of social interaction time” value (Zebrafish (Danio rerio) [1]; pretreatment 20 min before MK-801 5 μM, FIG. 2) was “did not prevent the MK-801-induced decrease”, the “total distance in the open tank test” value (Zebrafish (Danio rerio) [2]; FIG. 7) was “increase in the total distance” and the “absolute turn angle in the open tank test” value (Zebrafish (Danio rerio) [2]; FIG. 8) was “no main effects for Drug_1 or interaction effects were observed”. The “number of clockwise rotations in the open tank test” value (Zebrafish (Danio rerio) [2]; FIG. 9) was “increase in the number of clockwise rotations”, the “time spent immobile in the open tank test” value (Zebrafish (Danio rerio) [2]; for pretreatments: effect on the MK-801-induced increase, FIG. 10) was “prevented this effect” and the “Open Tank Test: Time immobile” value (Zebrafish (Danio rerio) [2]; immediately after social interaction test, 10 min) was “Prevents”. For the same compound, the “Open Tank Test: Clockwise rotations” value (Zebrafish (Danio rerio) [2]; [4]) was “↑ (main”, the “Open Tank Test: Total distance” value (Zebrafish (Danio rerio) [2]; [4]) was “↑ (main” and the “ability to reverse the schizophrenia-like symptoms produced by MK-801” value (Zebrafish (Danio rerio) [3]) was “failed to demonstrate a clear ability to reverse the schizophrenia-like symptoms produced by MK-801 in most of the parameters tested”. For the same compound, the “prevention of social interaction deficits caused by MK-801” value (rodents) was “does not show a similar profile”.
